PMC12989817
These are yes or no findings as the source states them, for the method shown. In cells and extracts the contact can be indirect. These calls come from enrichment with a bait or labelling near it, and not all partners need be listed.

B1: STXBP3 (protein, UniProt O00186 1-592)
chain: MAPPVAERGLKSVVWQKIKATVFDDCKKEGEWKIMLLDEFTTKLLASCCKMTDLLEEGITVVENIYKNREPVRQMKALYFITPTSKSVDCFLHDFASKSENKYKAAYIYFTDFCPDNLFNKIKASCSKSIRRCKEINISFIPHESQVYTLDVPDAFYYCYSPDPGNAKGKDAIMETMADQIVTVCATLDENPGVRYKSKPLDNASKLAQLVEKKLEDYYKIDEKSLIKGKTHSQLLIIDRGFDPVSTVLHELTFQAMAYDLLPIENDTYKYKTDGKEKEAILEEEDDLWVRIRHRHIAVVLEEIPKLMKEISSTKKATEGKTSLSALTQLMKKMPHFRKQITKQVVHLNLAEDCMNKFKLNIEKLCKTEQDLALGTDAEGQKVKDSMRVLLPVLLNKNHDNCDKIRAILLYIFSINGTTEENLDRLIQNVKIENESDMIRNWSYLGVPIVPQSQQGKPLRKDRSAEETFQLSRWTPFIKDIMEDAIDNRLDSKEWPYCSQCPAVWNGSGAVSARQKPRANYLEDRKNGSKLIVFVIGGITYSEVRCAYEVSQAHKSCEVIIGSTHVLTPKKLLDDIKMLNKPKDKVSLIKDE
B2: AP3D1 (protein, UniProt O14617 1-1153)
chain: MALKMVKGSIDRMFDKNLQDLVRGIRNHKEDEAKYISQCIDEIKQELKQDNIAVKANAVCKLTYLQMLGYDISWAAFNIIEVMSASKFTFKRIGYLAASQSFHEGTDVIMLTTNQIRKDLSSPSQYDTGVALTGLSCFVTPDLARDLANDIMTLMSHTKPYIRKKAVLIMYKVFLKYPESLRPAFPRLKEKLEDPDPGVQSAAVNVICELARRNPKNYLSLAPLFFKLMTSSTNNWVLIKIIKLFGALTPLEPRLGKKLIEPLTNLIHSTSAMSLLYECVNTVIAVLISLSSGMPNHSASIQLCVQKLRILIEDSDQNLKYLGLLAMSKILKTHPKSVQSHKDLILQCLDDKDESIRLRALDLLYGMVSKKNLMEIVKKLMTHVDKAEGTTYRDELLTKIIDICSQSNYQYITNFEWYISILVELTRLEGTRHGHLIAAQMLDVAIRVKAIRKFAVSQMSALLDSAHLLASSTQRNGICEVLYAAAWICGEFSEHLQEPHHTLEAMLRPRVTTLPGHIQAVYVQNVVKLYASILQQKEQAGEAEGAQAVTQLMVDRLPQFVQSADLEVQERASCILQLVKHIQKLQAKDVPVAEEVSALFAGELNPVAPKAQKKVPVPEGLDLDAWINEPLSDSESEDERPRAVFHEEEQRRPKHRPSEADEEELARRREARKQEQANNPFYIKSSPSPQKRYQDTPGVEHIPVVQIDLSVPLKVPGLPMSDQYVKLEEERRHRQKLEKDKRRKKRKEKEKKGKRRHSSLPTESDEDIAPAQQVDIVTEEMPENALPSDEDDKDPNDPYRALDIDLDKPLADSEKLPIQKHRNTETSKSPEKDVPMVEKKSKKPKKKEKKHKEKERDKEKKKEKEKKKSPKPKKKKHRKEKEERTKGKKKSKKQPPGSEEAAGEPVQNGAPEEEQLPPESSYSLLAENSYVKMTCDIRGSLQEDSQVTVAIVLENRSSSILKGMELSVLDSLNARMARPQGSSVHDGVPVPFQLPPGVSNEAQYVFTIQSIVMAQKLKGTLSFIAKNDEGATHEKLDFRLHFSCSSYLITTPCYSDAFAKLLESGDLSMSSIKVDGIRMSFQNLLAKICFHHHFSVVERVDSCASMYSRSIQGHHVCLLVKKGENSVSVDGKCSDSTLLSNLLEEMKATLAKC

Target: N-terminal Kv1.3-TurboID (V5-TurboID-Kv1.3 fusion) (human) (UniProt P22001)
Experiment: proximity labelling; TurboID fused to Kv1.3, stably expressed in Jurkat T-cells; 200 μM biotin for 1 h; lysis in 8 M urea; biotinylated proteins enriched on streptavidin magnetic beads; label-free quantitative MS against untransduced Jurkat T-cells or between lines (>4-fold, p<0.05; n=3)

Row | Binder | binding
1 | B1 | binds
2 | B2 | binds
